Hit rate of the full screen: of about 220,000 compounds, about 2,400 (1.1%) were called active. This list was built around the results that the source calls inconclusive (neither active nor inactive); the mix of calls is not that of the screen. The call rests on the fitted dose curve; in most records, active means well fitted inhibition curve with a large enough effect; inconclusive means small, poorly fitted or top-dose-only effect, or effect the other way; inactive means no such curve, though single readings can be large or run the other way. A potency beside an inconclusive call is a rough fit, not a confirmed value.
Test: qHTS Multiplex Assay to Identify Dual Action Probes in a Cell Model of Huntington: Aggregate Formation (GFP); further: nearly all actives have a fitted effect of over 60% in size
Conditions: PC12 HttQ103-GFP aggregates, Acumen cytometry, 40 h; activity change, negative = inhibition: at 46.1 µM (top of the series) unless noted
Summary of the method: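 Compounds (qHTS titration) were added to PC12 cells expressing an ecdysone-driven HTT exon 1 Q103–GFP fusion after induction with 100 nM tebufenozide. Aggregate formation was measured as GFP objects in cell lysates.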
On the % scale 0 is the no-effect control and ±100 the full control effect; potency means the concentration at half of the fitted maximal effect.

SMILES | activity change, negative = inhibition | Potency
O=C(NC1=NCCS1)C1COc2ccccc2O1 (stereo not drawn) | inactive: -14.1% | 
O=C(Cn1ncc(Cl)c(Cl)c1=O)NCC1CCCCC1 |  | inconclusive: 35.5 µM [inhibitor, single point]
NC1=NC(=Nc2ccc(Br)cc2)c2ccccc21 |  | inconclusive: 31.6 µM [activator, single point]
CC(Sc1ccc(Cl)cc1)C(=O)NCc1ccc2c(c1)OCO2 (stereo not drawn) |  | inconclusive: 17.8 µM [inhibitor, single point]
CC(Cl)C(=O)NC(=O)NC12CC3CC(CC(C3)C1)C2 (stereo not drawn) |  | inconclusive: 5.62 µM [inhibitor, single point]
Cc1cc(C)cc(NC(=O)C2CCN(c3nccs3)CC2)c1 |  | inconclusive: 20 µM [inhibitor, partial curve, poor fit]
COCc1nnc(NC(=O)c2ccc(S(=O)(=O)N(C)c3ccccc3)cc2)o1 |  | inconclusive: 8.91 µM [inhibitor, partial curve]
CCCc1ccc(OCc2ccc(C(=O)N3CCN(c4ccccn4)CC3)o2)c(OC)c1 |  | active: 17.8 µM
Cc1ccc(Cn2cnc3ccccc32)cc1 |  | inconclusive: 35.5 µM [inhibitor, single point]
CC(C)CCN(CCC(C)C)CC(O)Cn1c2ccccc2c(=O)c2ccccc21 (stereo not drawn) | inactive: 8.2% [at 9.22 µM] | 
Nc1nc(Cl)cc(N2CCC(c3cc(-c4ccc(Cl)cc4Cl)n[nH]3)CC2)n1 |  | inconclusive: 20 µM [inhibitor, single point]
N#CCSc1nc2ccccc2c(=O)n1CCCC(=O)NCC1CCCO1 (stereo not drawn) | inactive: 16.7% [at 9.22 µM] | 
COC(=O)CCC(=O)c1oc2ccccc2c1NC(=O)CCCN1C(=O)c2ccccc2C1=O | inactive: 4.25% | 
CCOc1ccc(S(=O)(=O)n2cnc3cc(C)c(C)cc32)cc1 |  | active: 11.2 µM
CSc1ccc(S(=O)(=O)Nc2ccc(OCC(=O)N3CCOCC3)cc2)cc1 |  | inconclusive: 5.62 µM [activator, single point]
O=C(Nn1cc(C(=O)Nc2ccccc2F)c2ccccc2c1=O)c1cnccn1 |  | inconclusive: 8.91 µM [inhibitor, partial curve]
CCOc1ccc(-n2c(N)c(C(=O)N3CCN(C)CC3)sc2=S)cc1 |  | inconclusive: 0.562 µM [activator, partial curve, poor fit]
CC(C)(CNC(=O)c1sc2cc(F)ccc2c1Cl)N1CCOCC1 | inactive: 11% | 
Cc1ccc(OCc2nnc(SCc3ccc(C#N)cc3)n2-c2ccc(C)cc2)cc1 |  | inconclusive: 35.5 µM [inhibitor, single point]
Cc1ccc(S(=O)(=O)n2c([N+](=O)[O-])cnc2C)c(C)c1C | inactive: 1.5% | 
COc1ccc(Cl)cc1Nc1nc(-c2sc(NC(=O)C(C)(C)C)nc2C)cs1 |  | inconclusive: 6.31 µM [inhibitor, full curve]
Cc1occc1C(=O)Nc1c(F)c(F)c(F)c(F)c1F |  | inconclusive: 12.6 µM [activator, partial curve]
CCCCNS(=O)(=O)c1ccc2nc(SCC(=O)Nc3sccc3C#N)[nH]c2c1 |  | inconclusive: 25.1 µM [inhibitor, single point]

2 consecutive compounds out of the list so far:
SMILES | activity change, negative = inhibition | Potency
Cc1ccc(S(=O)(=O)n2c([N+](=O)[O-])cnc2C)c(C)c1C | inactive: 1.5% | 
COc1ccc(Cl)cc1Nc1nc(-c2sc(NC(=O)C(C)(C)C)nc2C)cs1 |  | inconclusive: 6.31 µM [inhibitor, full curve]

Additional records

SMILES | activity change, negative = inhibition | Potency
C=C1CC[C@H](O)C/C1=C/C=C1\CCC[C@]2(C)[C@@H]([C@H](C)CC[C@@H](O)C(C)(C)O)CC[C@@H]12 | inactive: -8.48% | 
CCCCCCc1cc2cc(C(N)=O)c(=N)oc2cc1O |  | inconclusive: 14.1 µM [inhibitor, single point]
CN(C)c1ccc(C2(O)C(=O)c3ccccc3C2=O)cc1 | inactive: 16.5% | 
O=C(COC(=O)Cc1cccc(C(F)(F)F)c1)Nc1ccccc1 |  | inconclusive: 6.31 µM [inhibitor, single point]
Oc1c(CN2CCN(c3ccccc3)CC2)cc(Br)c2cccnc12 | inactive: -2.24% [at 9.22 µM] | 
O=[N+]([O-])c1ccc(N2CCNCC2)cc1NCc1cccnc1 |  | inconclusive: 2.82 µM [activator, full curve]
CCN(CC)c1ccc(/C=N/NC(=O)Cc2cccs2)c(O)c1 |  | active: 25.1 µM
CCN1CCN(c2ccc(NC(=O)CCc3c(C)nc4c(-c5ccccc5)c(C)nn4c3C)cc2)CC1 |  | inconclusive: 35.5 µM [inhibitor, single point]
O=C(Nc1ccc(S(=O)(=O)N2CCCCC2)cc1)c1ccncc1 | inactive: -27.3% | 
CC(C)(C)c1cc(/C=N/O)cc(C(C)(C)C)c1O |  | inconclusive: 11.2 µM [inhibitor, partial curve]
NC(=O)c1c(NC(=O)CSc2nnc(-c3ccccc3)n2CC2CCCO2)sc2c1CCC2 (stereo not drawn) | inactive: -11.4% | 
CN1c2ccccc2N(C)C1c1ccc2c(c1)OCO2 |  | inconclusive: 11.2 µM [inhibitor, partial curve]
COc1cc(OC)cc(-c2cc3nc(C)c(CCC(=O)NC(C)CCc4ccco4)c(C)n3n2)c1 (stereo not drawn) | inactive: -1.93% | 
N=c1c2c(n(Cc3ccc(Cl)cc3)c3c1CCC3)CCC2 |  | inconclusive: 2 µM [inhibitor, partial curve]
CCOc1ccc2nc(NC(=O)CN3CCC(n4nnc5cc(F)ccc54)CC3)sc2c1 |  | inconclusive: 25.1 µM [inhibitor, single point]
O=C(Nc1ccc(S(=O)(=O)Nc2nccs2)cc1)c1cc(-c2ccccc2)nc2ccccc12 |  | inconclusive: 11.2 µM [activator, single point]
NS(=O)(=O)c1ccc(CNC(=O)/C=C/c2ccccc2[N+](=O)[O-])cc1 |  | inconclusive: 11.2 µM [inhibitor, single point]
NC(=S)N/N=C/c1ccccc1OCCSc1ccc(Cl)cc1 |  | inconclusive: 5.62 µM [inhibitor, single point]
CCN1CCN(C(c2nnnn2Cc2ccc3c(c2)OCO3)C(C)C)CC1 (stereo not drawn) |  | inconclusive: 5.62 µM [inhibitor, single point]
N=C(N)SCc1nc2ccccc2c(=O)n1-c1ccccc1 |  | inconclusive: 8.91 µM [activator, partial curve, poor fit]
CCOC(=O)c1cnc2ccc(OC)cc2c1Nc1ccc2c(c1)OCCO2 |  | inconclusive: 12.6 µM [inhibitor, partial curve]
O=C(NCc1ccc(Cl)cc1)c1cnn2ccccc12 |  | inconclusive: 11.2 µM [inhibitor, partial curve]
O=C1CN(C(=O)CNCc2cccc(Cl)c2)c2ccccc2N1 | inactive: -3.68% [at 9.22 µM] | 

SMILES | activity change, negative = inhibition | Potency
Cc1ccc(C)c(-n2c(-c3csc(C)c3)n[nH]c2=S)c1 |  | inconclusive: 1 µM [activator, full curve, poor fit]
CC(=O)Nc1ccc(S(=O)(=O)Nc2cccc(-c3nc4ccccc4o3)c2)cc1 |  | inconclusive: 15.8 µM [inhibitor, single point]
COc1ccc(C(=O)c2c(C)oc3ccc(O)c(CN4CCOCC4)c23)cc1 | inactive: -4.62% | 
COc1ccc(-c2csc(Nc3ccccn3)n2)cc1 |  | inconclusive: 8.91 µM [inhibitor, partial curve]
CC1CC(C)CN(CCCNC(=O)c2ccc3c(c2)NC(=O)C(N2CCCCC2)S3)C1 (stereo not drawn) |  | inconclusive: 6.31 µM [inhibitor, partial curve]
CCN1/C(=C/c2ccc3cc(C)ccc3[n+]2CC)Sc2cc(C)ccc21 |  | active: 1 µM
CC1CCN(C(=O)C2CCN(C(=O)c3cc4sccc4n3Cc3ccc(F)cc3)CC2)CC1 |  | inconclusive: 35.5 µM [inhibitor, single point]
CN(C)c1oc(-c2ccccc2[N+](=O)[O-])nc1C#N | inactive: 13.8% [at 9.22 µM] | 
Cc1cc(C)c(C(=O)COc2cccnc2[N+](=O)[O-])cc1C |  | inconclusive: 35.5 µM [inhibitor, single point]
Cc1ccc(-c2oc3ccccc3c(=O)c2O)cc1 |  | active: 11.2 µM
O=C(CSc1ncnc2nc[nH]c12)N1CCN(c2ccc(Cl)cc2)CC1 |  | inconclusive: 10 µM [inhibitor, single point]
O=C(NCCOc1nc(N2CCCCC2)nc(N2CCCCC2)n1)Nc1ccccc1 |  | inconclusive: 22.4 µM [inhibitor, partial curve, poor fit]
CC(C)N(Cc1nc(-c2ccccc2)no1)C(=O)c1ccc(Cl)cc1 |  | inconclusive: 14.1 µM [inhibitor, single point]
O=C1SCC(c2ccc(Cl)cc2Cl)=NN1Cc1nnc(-c2ccccc2)o1 |  | inconclusive: 3.98 µM [activator, full curve, poor fit]
CN(CC(=O)Nc1ccccc1C(F)(F)F)C(=O)COc1ncnc2sccc12 |  | inconclusive: 5.62 µM [inhibitor, single point]
C=CCn1c(=N)n(CC(O)COc2ccc(OC)cc2)c2ccccc21 (stereo not drawn) |  | inconclusive: 0.562 µM [activator, partial curve, poor fit]
O=C(Cn1c(=O)n(CCCCC(=O)NC2CCCC2)c(=O)c2ccccc21)NCCC1=CCCCC1 |  | inconclusive: 5.01 µM [inhibitor, single point]
Cc1ccc(N=Nc2c(N)n(-c3ccccc3)[nH]c2=O)cc1 | inactive: 12.3% | 
Cc1ccc(Nc2c(-c3ccccn3)nc3ccc(C)cn23)cc1 |  | active: 11.2 µM
Fc1ccc(C2CCCN2Cc2nc(Cc3ccccc3)no2)cc1 (stereo not drawn) | inactive: 14.6% [at 9.22 µM] | 
C=C(CCC(=O)c1ccccc1)C(=O)c1ccccc1 |  | inconclusive: 12.6 µM [inhibitor, single point]
O=c1c(Cc2ccc(F)cc2)c(O)ccn1CCc1ccccn1 |  | inconclusive: 0.501 µM [activator, full curve, poor fit]

Fetched one by one from the list above (2):
SMILES | activity change, negative = inhibition | Potency
Cc1ccc(-c2oc3ccccc3c(=O)c2O)cc1 |  | active: 11.2 µM
CC(=O)Nc1ccc(S(=O)(=O)Nc2cccc(-c3nc4ccccc4o3)c2)cc1 |  | inconclusive: 15.8 µM [inhibitor, single point]

Reference: PubChem BioAssay AID1688 (National Center for Advancing Translational Sciences (NCATS), 2009)
